Source: PubChem BioAssay AID912 (NCATS, 2007).

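Uptake of anthrax lethal toxin into cultured cells, read by FRET (460/530 nm ratio) and reported from the 460 nm channel; the cell line is not named here.
Each compound was tested as a concentration series from about 0.0005 to 40 µM.
The number is the fitted AC50 of the 460 nm signal alone; lower values mean a more potent effect. A falling signal goes with compounds filed as inhibitors or cytotoxic, a rising one with activators or fluorescent compounds (inferred from the filed classes).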

Values are in µM.
Common to all entries: measured here: 460 nm channel.
Part of the compounds only, not a random draw; the main read-out is not listed here.
A potency from a partial, single-point or poor curve is only a rough figure.
The first word of each remark tells which way the curve ran; it can be opposite to the aim of the assay.

| # | Compound | AC50 (µM) | curve |
|---|---|---|---|
| 1 | `O=C(Nc1ccc2c(c1)OCO2)c1ccc(COc2ccc3c(c2)CCC3)o1` | 6.31 | falling, partial curve |
| 2 | `CCCCOc1ccc(C(=O)Nc2cccc(C)n2)cc1` | 10 | falling, partial curve |
| 3 | `C=C(CC)C(=O)c1ccc(OCC(=O)O)c(Cl)c1Cl` | 15.85 | falling, partial curve, poor fit |
| 4 | `O=S1OCC2C(CO1)C1(Cl)C(Cl)=C(Cl)C2(Cl)C1(Cl)Cl` (stereo not shown) | 25.12 | falling, partial curve |
| 5 | `Clc1cccc(Nc2nnc(-c3ccccc3)c3ccccc23)c1` | 1.995 | falling, full curve |
| 6 | `O=C(CSc1ncnc2c1oc1ccccc12)N1CCCc2ccccc21` | 31.62 | falling, partial curve, poor fit |
| 7 | `CN1CCN(S(=O)(=O)c2ccc(Cc3ccc(S(=O)(=O)N4CCN(C)CC4)cc3)cc2)CC1` | 0.07943 | rising, full curve, poor fit |
| 8 | `CCOc1ccc(CN(Cc2ccco2)C(c2cccs2)c2nnnn2C(C)(C)C)cc1` (stereo not shown) | 6.31 | falling, full curve |
| 9 | `CCOc1ccc(C(=O)N2CCN(C(=O)c3ccco3)CC2)cc1OCC` | 3.981 | rising, single point |
| 10 | `O=C(CN1CCN(c2ccccc2)CC1)N1CCN(c2ccccc2)CC1` | 0.3162 | rising, partial curve |
| 11 | `Clc1ccccc1-c1nc(NCc2cccs2)c2ccccc2n1` | 12.59 | falling, single point |
| 12 | `COc1ccc(NC(=O)N2CCCC3(CCN(S(=O)(=O)c4ccccc4)CC3)C2)cc1` | 10 | falling, partial curve |
| 13 | `COCCN(CCOC)Cc1c(O)ccc2c3c(c(=O)oc12)CCC3` | 7.943 | rising, partial curve |
| 14 | `CN(C)CCCN1c2ccccc2Sc2ccc(Cl)cc21` | 7.943 | falling, partial curve |
| 15 | `N=C1N=C(N)c2cc3ccccc3cc21` | 31.62 | falling, single point |
| 16 | `CN(C)C(=O)C(CCN1CCC(O)(c2ccc(Cl)cc2)CC1)(c1ccccc1)c1ccccc1` | 1.259 | rising, full curve, poor fit |
| 17 | `COc1nc(Nc2cccc(C)c2)nc(N2CCCCC2)n1` | 1.995 | falling, partial curve |
| 18 | `COc1cccc(-c2cc(N)nn2C(=O)Nc2ccc(Cl)cc2)c1` | 12.59 | falling, partial curve |
| 19 | `CN1CCCN(C(=O)c2ccc(Cl)c(S(=O)(=O)N(C)c3ccccc3)c2)CC1` | 25.12 | rising, single point |
| 20 | `CCCOC(=O)c1ccc(NC(=O)c2ccoc2C)cc1` | 31.62 | falling, single point |
| 21 | `CCOc1cc(S(=O)(=O)NC2CC(C)(C)NC(C)(C)C2)ccc1F` | 0.01995 | falling, full curve, poor fit |
| 22 | `O=c1cc(-c2ccncc2)oc2ccccc12` | 5.012 | rising, full curve, poor fit |
| 23 | `O=c1c(-c2ccccc2)nc2cnc(N3CCOCC3)nc2n1C1CC1` | 10 | rising, partial curve |
| 24 | `CC(C)=NNc1ncnc2nc[nH]c12` | 0.3981 | falling, full curve, poor fit |
| 25 | `CCOC(=O)C1=C(c2ccccc2)Nc2ncnn2C1c1cc(OC)ccc1OC` (stereo not shown) | 12.59 | rising, single point |
| 26 | `Cc1ccc(-c2nnn(CC(=O)N(Cc3cccs3)C(C(=O)NC(C)(C)C)c3ccco3)n2)o1` (stereo not shown) | 7.943 | rising, partial curve |
| 27 | `O=C(c1cc(C(F)(F)F)cc(C(F)(F)F)c1)N1CCC2(CCN(Cc3nccs3)CC2)CC1` | 12.59 | rising, partial curve, poor fit |
| 28 | `Cc1nn(Cc2ccc(Cl)c(Cl)c2)c(C)c1NC(=O)c1cc(CC(C)C)on1` | 6.31 | falling, partial curve |
| 29 | `CCN(CCO)C1CC(=O)N(c2ccccc2C)C1=O` (stereo not shown) | 0.7943 | falling, full curve, poor fit |
| 30 | `O=C(NCc1ccco1)N1c2ccccc2Sc2ccccc21` | 31.62 | falling, single point |
| 31 | `O=C(CN1C(=O)NC2(CCCC2)C1=O)Nc1nc(-c2ccc(F)cc2)cs1` | 15.85 | falling, partial curve |
| 32 | `Cc1ccc2nc(NC(=O)CN(C)S(=O)(=O)c3ccc(Br)s3)sc2c1` | 12.59 | falling, partial curve |
| 33 | `Cn1c(=O)c(=O)n(C)c2cc(S(=O)(=O)Nc3ccc4c(c3)OCCO4)ccc21` | 1.259 | rising, partial curve, poor fit |
| 34 | `COc1nc2c(C)cccc2cc1-c1noc(-c2ccco2)n1` | 12.59 | falling, single point |
| 35 | `COC(=O)c1ccc(C(=O)OC)c(N)c1` | 1.995 | rising, full curve, poor fit |
| 36 | `O=C(CSc1nc2scc(-c3ccco3)c2c(=O)n1-c1ccccc1)N1CCOCC1` | 15.85 | falling, single point |
| 37 | `COc1cccc(C2c3c(oc4ccccc4c3=O)C(=O)N2CCCN2CCOCC2)c1OC` (stereo not shown) | 0.003162 | falling, full curve, poor fit |
| 38 | `CN(Cc1ccco1)c1ccnc(-c2cccnc2)n1` | 5.012 | falling, single point |
| 39 | `COc1ccc(C2=Nn3c(nnc3-c3ccccc3OC)SC2)cc1OC` | 0.01 | falling, full curve, poor fit |
| 40 | `O=C(c1cnn2c(C(F)F)cc(-c3ccccc3)nc12)N1CCOCC1` | 5.012 | rising, single point |
| 41 | `CCOC(=O)c1c(N)sc(C(=O)N2CCOCC2)c1C` | 10 | rising, partial curve, poor fit |
| 42 | `Nc1cc(=O)[nH]c(N)n1` | 12.59 | falling, single point |
| 43 | `COc1ccc(S(=O)(=O)Cc2ccc(C(=O)N3CCN(c4cc(Cl)ccc4C)CC3)o2)cc1` | 5.012 | falling, partial curve |
| 44 | `CCCN(CCC)[C@@H]1CCc2cccc(O)c2C1` | 12.59 | falling, single point |
| 45 | `COc1cc(N)c(Cl)cc1C(=O)OCCCN1CCCCC1` | 12.59 | falling, partial curve, poor fit |
| 46 | `O=C(Nc1nc(-c2cccs2)cs1)c1ccc(S(=O)(=O)N2CCCCC2)cc1` | 7.943 | falling, partial curve |
| 47 | `C(=N/n1c2ccccc2c2ccccc21)/c1ccco1` | 3.162 | falling, full curve |
| 48 | `O=C(O)[C@@H]1[C@H](C(=O)O)[C@H]2C(=O)C=C[C@H]1N2Cc1ccccc1` | 0.7943 | rising, full curve, poor fit |
| 49 | `O=c1c2ccccc2nc(SCc2cn3ccsc3n2)n1-c1ccc(F)cc1` | 6.31 | rising, partial curve |
| 50 | `S=C(c1ccc(-c2ccccc2Cl)o1)N1CCOCC1` | 25.12 | falling, single point |
| 51 | `COc1ccc(C2C3=C(CC(C)(C)CC3=O)Nc3c2c(=O)[nH]c(=O)n3Cc2ccccc2)cc1OC` (stereo not shown) | 10 | rising, partial curve |
| 52 | `O=C(c1ccc(C#Cc2ccccc2)o1)N1CCN(c2ccccn2)CC1` | 31.62 | falling, single point |
| 53 | `O=C(c1ccncc1)N1CCC[C@@]2(CCN(Cc3cc(C(F)(F)F)cc(C(F)(F)F)c3)C2)C1` | 31.62 | falling, single point |
| 54 | `COC(=O)COc1cccc(NS(=O)(=O)c2ccc(NC(C)=O)cc2)c1` | 10 | rising, partial curve |
| 55 | `COc1cc2c(c(OC)c1OC)-c1ccc(OC)c(=O)cc1[C@@H](NC(C)=O)CC2` | 0.01995 | falling, full curve |

3 of the entries, repeated:

Compound,AC50 (µM),curve
C(=N/n1c2ccccc2c2ccccc21)/c1ccco1,3.162,"falling, full curve"
CN(Cc1ccco1)c1ccnc(-c2cccnc2)n1,5.012,"falling, single point"
CC(C)=NNc1ncnc2nc[nH]c12,0.3981,"falling, full curve, poor fit"